# Primary screen of a compound library

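Whole-cell assay for inhibitors of Mycobacterium tuberculosis growth, labelled Cornell in the record; the read-out is not stated. The concentration is filed as 10 mM, unlikely as a test dose, so the dose is not known. The record gives no direction; compounds strong in two other growth screens of this library score well above the rest, so higher reads as stronger inhibition. About 53,000 compounds were tested under these conditions; 1.7% (about 900) showed 50% or more at least once.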

The filed quantity is “Percent Effect” (%).
The controls that fix the scale are not given in the record; negative values are as filed.
The compounds are a random part of those screened.

compound	Percent Effect
Cc1cc(C(=O)NCCSC2CCCC2)no1	8.103
OC1CCN(Cc2cc3c(cc2Br)OCCO3)CC1	5.885
CC(C)NC(=O)CCNC(=O)c1cnc(Cc2ccc(F)cc2)s1	-12.4
Fc1ccc(CN2CCCC(c3nnc(-c4cnccn4)o3)C2)cc1F (centres undefined)	12.72
Cc1nccnc1N1C[C@H](NC(=O)CNS(C)(=O)=O)[C@@H](C2CC2)C1	7.374
COC(=O)c1ccc(N2CCC(c3ccccc3)CC2)nn1	26.44
CC(C)CC(=O)N1CC(=O)c2sc(NCCc3ccccc3)nc2C1	-41.09
CC(=O)N[C@@H]1CN(Cc2ccccc2C#N)C[C@H]1c1ccc(C)cc1	10.09
CN(C)S(=O)(=O)c1ccc(CN2CCCC2c2cccs2)o1 (centres undefined)	0.6388
Cc1ccc2c(c1)c(C)cc(=O)n2CCC(=O)O	7.327
Oc1cccc(-c2cc(C3CCN(Cc4cncnc4)C3)ccn2)c1 (centres undefined)	26.13
O=C(CCc1c(F)cccc1F)NS(=O)(=O)c1ccc2c(c1)OCCO2	16.16
NC(=O)C1CCN(C(=O)c2cc(-n3cnnn3)ccc2Cl)CC1	3.624
COCCC(=O)N1CCc2cc(Cl)cc(Cl)c2C1	39.56
O=C(NCc1cccc(F)c1)c1cccc(C(=O)N2CCCC2)n1	0.259
CC(C)(C#N)c1ccccc1CN(CCO)Cc1ccsc1	6.38
CCC(C)(CC(=O)OC)NC(=O)c1ccc(C(C)=O)cc1 (centres undefined)	-4.395
NC(=O)COc1ccc(C(=O)N2CCCC(n3ccnc3)C2)cc1 (centres undefined)	-10.65
O=S(=O)(NCC1(O)CCOc2ccccc21)c1cccs1 (centres undefined)	3.904
O=C1NCCCCC1SCc1coc(-c2ccccc2)n1 (centres undefined)	18.37
CCNC(=O)NC(=O)CSC(C)c1ccccc1F (centres undefined)	21.74
CCC(C)(C)NC(=O)Cn1cc(C(N)=O)c(-c2ccccc2)n1	-3.218
CCOc1ccc(CN2C(=O)CC(C)(C(C)C)C2=O)nc1 (centres undefined)	16.55
CC(=O)N1C[C@@H](F)[C@@H](OCc2nc3cc(C)c(C)cc3[nH]2)C1	-26.22
O=S(=O)(CC1CC1)c1ncc(CN2CCSCC2)n1CC1CCCO1 (centres undefined)	7.812
CC(C)c1nc(C2CCCN2CCc2ccncc2)no1 (centres undefined)	-12.21
O=C(COCc1nc(-c2ccncc2)no1)N1CCCC1	16.38
CCCNC(=O)c1cccc(CNCc2csc(C(C)C)n2)c1	7.039
CCc1nc(CN2CCCN(C(=O)COC(C)C)CC2)cs1	-19.74
O=C(CS(=O)(=O)Cc1ccc(Br)cc1F)Nc1cn[nH]c1	17.06
Cc1ccc(C(=O)Nc2cccc3c2C(=O)NC3)c(C)n1	-12.31
Cc1cc(C(=O)NCc2ccnc(N(C)C)c2)c(C)o1	-27.26
CCn1ncc(CN2CCCC(n3c(=O)oc4ccccc43)C2)c1C.Cl (centres undefined)	5.002
O=C(c1nc(=O)[nH]c2ccccc12)N1CCCC2(CCNC2)C1 (centres undefined)	22.58
COc1ccc(C(=O)C2CCCN(Cc3ccncc3)C2)c(OC)c1 (centres undefined)	-21.28
CC1c2ncc(CNC(=O)C3CC3)n2CCN1Cc1ccccn1.O=C(O)C(F)(F)F.O=C(O)C(F)(F)F (centres undefined)	2.778
O=C(c1csc(-c2cccs2)n1)N1CCN2CCCCC2C1 (centres undefined)	-24.3
CC(C)(Oc1ccc(C(N)=O)cc1)C(=O)N(CCC#N)CC1CCCO1 (centres undefined)	-19.15
O=C1N(CC2CC2)CCCC1(O)CN1CCc2[nH]ncc2C1 (centres undefined)	12.29
CCN(C)Cc1cccc(CNC(=O)CSCc2ccncc2)c1	-0.009034
CCCn1nnnc1COc1ccc(C(=O)OC)cc1	2.105
CC(N)Cc1ccccc1Sc1ccccc1.O=C(O)/C=C\C(=O)O (centres undefined)	13.46
CCCC(=O)NCC(=O)NC(c1ccc(Cl)cc1)C(F)(F)F (centres undefined)	6.43
O=C([C@H](O)c1ccccc1)N1CCN(c2cccc(Cl)c2)C(=O)C1	-50.27
COc1ccc2c(ccn2CC(=O)Nc2n[nH]c(C(C)C)n2)c1	42.17
C[C@@H]1CN(C(=O)C2(Cn3cccn3)CC2)C[C@@]1(O)C1CCC1	-3.081
CCc1ncc2c(n1)CN(CC(=O)NCCOc1ccccc1)CC2	22.68
CCN(CC1CCCO1)C(=O)Nc1ccc(OC)c(C)c1 (centres undefined)	29.95
CC(=O)N1CCN(CCNS(=O)(=O)c2ccc(C)c(F)c2)CC1	-17.68
Cn1ncc(N2CCC(CNC3Cc4ccccc4C3)C2)cc1=O (centres undefined)	-22.56
O=C(O)C(F)(F)F.[H][C@]12CCC[C@@H](CNc3ccccn3)[C@@]1([H])CN(Cc1cc[nH]n1)C2	-38.61
Cc1cc(=O)n(C)cc1NC(=O)Cc1cccc(Cl)c1	27.09
CCC1(CC)CC(=O)N(CC(O)c2ccc(F)cc2)C1=O (centres undefined)	-32.72
C=C/C=c1\c(=C/C)oc2c(NCc3ccccc3)nc(CC)nc12	44.26
O=C(NCCCc1nc(=O)[nH][nH]1)Nc1cccc(F)c1	16.99
CC(=O)NCCOc1c(C)cccc1C	-28
Nc1ccnc(N2CCC(CCc3ccccc3)(C(=O)O)CC2)n1	-6.895
COc1ccccc1CNC(Cc1cccs1)c1nc(C)cs1.Cl (centres undefined)	-28.97
CCc1cc(N2CCSCC2)n2nc(C)c(C)c2n1	17.24
Cc1nc(C2CCN(S(=O)(=O)c3ccc(Cl)cc3)CC2)n[nH]1	17.37

Source: ChEMBL document CHEMBL3988442, “University of Dundee, Small-Polar-MMV Screening Library” (2021).